# Screening data, single-dose tests

From ChEMBL document CHEMBL3988442, “University of Dundee, Small-Polar-MMV Screening Library” (2021).

Each number is a percent effect as filed.
The record does not define 0% and 100%; most values in the screen are far below 50% and negative numbers occur (in some assays of this library far below -100).
This is an unselected part of the compounds tested.

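Assay of Toxoplasma gondii numbers, read through their beta-galactosidase reporter with a colour substrate. Concentration: 50 µM. The record gives no direction; the compounds picked for IC50 retests had high values, so higher reads as fewer parasites. Size under these conditions: about 18,000 compounds, about 170 of them at 50% or above in at least one test.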

| compound | effect |
|---|---|
| `CC(C)(C)OCCOc1nnc2ccccn12` | -0.8278 |
| `Cc1noc(C2COCCN2Cc2cncs2)n1` (stereo not given) | -6.14 |
| `CCCC(=O)NC1CCN(CCC)CC1` | -16.47 |
| `CCN(CCCN(C)C)S(=O)(=O)N1CCCC1C` (stereo not given) | -14.91 |
| `CN(C)S(=O)(=O)Nc1ccccn1` | -3.547 |
| `COc1cc(CCN)ccc1C` | 6.409 |
| `Cc1cc(C(=O)N(C)CC(C)(CO)CO)cc(C)c1F` | 32.94 |
| `COCCN1CCC(NC(=O)Cc2ccccc2O)C1` (stereo not given) | 11.56 |
| `CCc1noc(CC)c1CNC(=O)Nc1ncnn1C` | 67.97 |
| `CC(C)C(C)NC(=O)CNC(=O)C1CC1` (stereo not given) | -4.676 |
| `Cc1ncsc1CCCNC(=O)c1cnccn1` | 4.277 |
| `CN(CC1CCOC1)C(=O)Cc1ccc(F)cc1` (stereo not given) | -9.299 |
| `CC(C)NC(=O)NC(C)c1ccccc1` (stereo not given) | -3.272 |
| `CN(CCCN)C(=O)CCCn1ccnc1` | -0.5428 |
| `CC(C)(N)c1nc(C2CC2)cc(=O)[nH]1` | 4.669 |
| `Cc1cccc(OCCc2noc(C3CNC3)n2)c1` | 82.99 |
| `CC(Cn1cncn1)NCc1ccccc1F` (stereo not given) | 13.66 |
| `COc1ccc(CN2CCCC3(CCOCC3)C2)cn1` | -3.534 |
| `CC(C)(C)OC(=O)n1cc(N)cn1` | -30.97 |
| `CCn1cnnc1C1CNCCO1` (stereo not given) | -10.75 |
| `Cc1nsc(NC(=O)C2CCNCC2)n1` | -11.46 |
| `COCc1cc(CNC(=O)c2sc(N)nc2C)n[nH]1` | 0.1234 |
| `O=C(NCC1(Cn2ccnc2)CC1)C1CCOC1` (stereo not given) | -2.844 |
| `Cc1ccc(I)c(C(=O)NCCCC(N)=O)c1` | -18.81 |
| `COCCNC(=O)CN(C)Cc1ccco1` | 0.027 |
| `CCS(=O)(=O)c1cc(Cl)cc(CN)c1` | -3.179 |
| `Cc1ccc(C(=O)N2CCCNCC2)cc1` | -14.22 |
| `CC(C)OCCS(=O)(=O)NC1(CN)CCCC1` | -20.35 |
| `NC(=O)CC1CCN(Cc2ccccc2F)CC1` | 5.111 |
| `CCn1ccnc1CN1CCC(=O)NCC1C` (stereo not given) | -1.183 |
| `CCN(CC)c1ccc(N)cn1` | 6.862 |
| `CC(CNC(=O)NCc1ccncc1)N(C)C1CC1` (stereo not given) | 13.03 |
| `CC(CO)(CO)NCc1cc2cc(F)ccc2o1` | 16.12 |
| `CN(CCn1cccn1)C(=O)C1CC12CCNCC2` (stereo not given) | -3.135 |
| `CC1CCCN(C(=O)c2cc(O)nc3ccccc23)C1` (stereo not given) | 6.15 |
| `CC1(C)CN(CC2CCCCO2)CCO1` (stereo not given) | -6.884 |
| `CNC1CCNC1=O` (stereo not given) | 22.45 |
| `CN1CCC(NC(=O)C2=NN(C)C(=O)CC2)C1` (stereo not given) | 6.241 |
| `OCC(O)CSCc1ccc(F)cc1` (stereo not given) | 17.91 |
| `COC1CCN(C(=O)Cc2noc3ccccc23)CC1` | -1.519 |
| `COc1cc(C)c(S(=O)(=O)N2C[C@@H](O)[C@@H](O)C2)cc1C` | 4.841 |
| `CN1CCC(CCC(=O)NC2CC2)CC1` | -17.77 |
| `O=C(Cc1cccs1)NCC1(O)CCCNC1` (stereo not given) | 35.8 |
| `CCCC(=O)N1CCC(C(=O)N2CCOCC2)CC1` | 7.758 |
| `Cc1noc(C)c1S(=O)(=O)N(C)C` | -2.301 |
| `CC(=O)NCCNC(=O)CN(CC1CCOC1)C1CC1` (stereo not given) | -8.648 |
| `COc1ccc(CSc2nnnn2C)c(Br)c1OC` | 19.84 |
| `O=C(c1cn(C2CNC2)nn1)N1CCCC1` | -7.087 |
| `c1ccc(CN2CCO[C@@H]3CNC[C@@H]32)cc1` | -2.032 |
| `COCN1C(=O)c2ccc(F)cc2S1(=O)=O` | -7.42 |
| `CN(CCCO)C1CCN(C(=O)CC(C)(C)C)CC1` | -4.029 |
| `COc1ccccc1CC(=O)Nc1ccon1` | -21.73 |
| `CN(Cc1ccccc1C(F)(F)F)C(=O)CCCN` | -15.08 |
| `CC(C)CC(=O)Nc1cc(C(C)C)n[nH]1` | 12 |
| `CSc1ncc(C(=O)N2CC[C@](C)(O)[C@H](C)C2)cn1` | 9.605 |
| `CC(CO)(NC(=O)c1c(O)cccc1F)C1CC1` (stereo not given) | 28.2 |
| `COC(C)(C)C(=O)Nc1ncccc1Cl` | -2.997 |
| `CC(C)(N)c1nc2c(c(=O)[nH]1)CCCC2` | 12.77 |
| `CC(C)CC(CCO)CNC(=O)N1CCSCC1` (stereo not given) | -4.239 |
| `CCC(=O)Nc1ccc(CC#N)cc1` | -2.486 |
| `N#Cc1ccccc1OCC(=O)NC(=O)c1ccco1` | 6.281 |
| `CC1=CCN(C(=O)c2ccsc2)CC1` | -1.128 |
| `CC(O)CNC(=O)Nc1ccccc1N1CCCC1` (stereo not given) | 13.69 |
| `CC(C)(N)C(O)c1ccc(Br)cc1` (stereo not given) | -11.48 |
| `CCCNC(=O)Nc1cccc(C(=O)N(C)C)c1` | -15.51 |
| `NCc1ccc2c(c1)OCCCO2` | 7.723 |
| `CCn1ccnc1C1CCN(C(=O)CNC(N)=O)CC1` | -10.3 |
| `CCC(=O)N1CCN(C(=O)c2ccc(Br)cc2)CC1` | -28.42 |
| `Cc1ccc(F)cc1C(=O)N1CCSC1` | 0.8812 |
| `Cc1noc(C)c1CC(=O)NCC1(O)CCCNCC1` (stereo not given) | 14.96 |

The last 5 entries again:

compound	effect
NCc1ccc2c(c1)OCCCO2	7.723
CCn1ccnc1C1CCN(C(=O)CNC(N)=O)CC1	-10.3
CCC(=O)N1CCN(C(=O)c2ccc(Br)cc2)CC1	-28.42
Cc1ccc(F)cc1C(=O)N1CCSC1	0.8812
Cc1noc(C)c1CC(=O)NCC1(O)CCCNCC1 (stereo not given)	14.96